Source: patent US7119229B2 (priority 2001, dated 2006)

Experiments:
Format in all cases: cell-based
[1] = system: MCF-7/DOX (adriamycin resistant cell strain); assay: SRB cytotoxicity assay, MCF-7/DOX; conditions: Homo sapiens, MCF7-DOX, 72 h, read-out: ED50 MCF-7/DOX
Method: (§1) Human tumor cells, including MCF-7 (human breast adenomatous tumor), MCF-7/DOX (adriamycin resistant cell strain), MRS-SA (human uterine sarcoma), MES-SA/DX5 (adriamycin resistant cell strain), A 549 (human non-small cell lung), SKOV-3 (human ovarian), SKMEL-2 (human melanoma), XF-498 (human CNS), HCT-15 (human colon) were incubated at 37° C. in the presence of 5% CO2 using a DMEM culture medium. The respective cells were seeded into each well of 96-well plates at a concentration of 2×10^3˜5×10^3 cells/well. […] Each cell line of the resultant plates was fixed with trichloroacetic acid (TCA), stained with 0.4% SRB solution and rinsed with 1% acetic acid. Thereafter, the dye was dissolved in 10 mM Tris base to measure the optical density (OD) at 520 nm.

[2] = system: MES-SA (human uterine sarcoma); assay: SRB cytotoxicity assay, MES-SA; conditions: 72 h, read-out: ED50 MES-SA
Method: as §1

[3] = system: A 549 (human non-small cell lung); assay: SRB cytotoxicity assay, A549; conditions: A549, 72 h, read-out: ED50 A549
Method: as §1

[4] = system: SKOV-3 (human ovarian); assay: SRB cytotoxicity assay, SK-OV-3; conditions: SK-OV-3, 72 h, read-out: ED50 SK-OV-3
Method: as §1

## COc1cc2c(c(OC)c1OC)-c1ccc(OC)c(=O)cc1[C@@H](NC(C)=O)CC2 [Colchicine]
[1]
  EC50: 183 nM
[2]
  EC50: 16 nM
[3]
  EC50: 9 nM
[4]
  EC50: 8 nM
